Values quoted from earlier work, collected in patent publication US10150729B2, “Tranilast compositions and cocrystals” (NUFORMIX LIMITED, priority 2012, dated 2018).
At least one read-out could not be matched to a standard name with certainty.

Conditions: rats; administered orally compared to IV administration; cited from earlier work

COc1ccc(/C=C/C(=O)Nc2ccccc2C(=O)O)cc1OC [Crystalline Tranilast, 2-[[3-(3,4-dimethoxyphenyl)-1-oxo-2-propenyl]amino] benzoic acid, reference compound]
relative bioavailability: 1.2%
